In article PMC5670223:
These are yes or no findings as the source states them, for the method shown. In cells and extracts the contact can be indirect. Some entries that bind do so weakly or less than the wild type. Where a sequence is shown, tags or fusion partners need not be part of it.

Amino acid sequences for entries named in this document (tags omitted).
UniProt O48963: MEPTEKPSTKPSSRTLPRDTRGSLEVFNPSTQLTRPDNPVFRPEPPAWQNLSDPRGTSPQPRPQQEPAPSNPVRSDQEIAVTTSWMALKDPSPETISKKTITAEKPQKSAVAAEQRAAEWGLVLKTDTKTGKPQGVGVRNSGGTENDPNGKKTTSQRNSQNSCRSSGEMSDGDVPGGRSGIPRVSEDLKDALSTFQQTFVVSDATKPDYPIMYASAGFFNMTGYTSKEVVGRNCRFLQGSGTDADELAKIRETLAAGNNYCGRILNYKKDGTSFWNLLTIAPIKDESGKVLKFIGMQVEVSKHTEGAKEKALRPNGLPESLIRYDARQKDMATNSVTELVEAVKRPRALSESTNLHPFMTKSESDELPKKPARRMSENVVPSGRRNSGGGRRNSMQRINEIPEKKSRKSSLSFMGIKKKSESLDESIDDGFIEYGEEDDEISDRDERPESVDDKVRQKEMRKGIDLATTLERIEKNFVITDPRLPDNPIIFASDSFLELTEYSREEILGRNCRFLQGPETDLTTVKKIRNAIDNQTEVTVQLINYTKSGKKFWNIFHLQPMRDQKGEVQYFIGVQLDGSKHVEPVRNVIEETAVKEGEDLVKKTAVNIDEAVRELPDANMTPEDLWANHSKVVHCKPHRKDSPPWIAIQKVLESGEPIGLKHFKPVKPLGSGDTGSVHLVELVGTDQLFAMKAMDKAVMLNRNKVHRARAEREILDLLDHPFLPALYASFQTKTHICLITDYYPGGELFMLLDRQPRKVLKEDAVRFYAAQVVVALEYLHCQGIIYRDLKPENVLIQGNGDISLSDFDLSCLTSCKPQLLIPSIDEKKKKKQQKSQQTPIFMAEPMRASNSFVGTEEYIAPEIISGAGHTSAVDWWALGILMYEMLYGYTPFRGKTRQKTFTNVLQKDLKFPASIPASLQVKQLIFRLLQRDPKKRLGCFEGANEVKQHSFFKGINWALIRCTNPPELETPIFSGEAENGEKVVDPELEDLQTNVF

T1: FLAG-CBC1 (Arabidopsis thaliana) (UniProt Q9SSA4)
T1 sequence: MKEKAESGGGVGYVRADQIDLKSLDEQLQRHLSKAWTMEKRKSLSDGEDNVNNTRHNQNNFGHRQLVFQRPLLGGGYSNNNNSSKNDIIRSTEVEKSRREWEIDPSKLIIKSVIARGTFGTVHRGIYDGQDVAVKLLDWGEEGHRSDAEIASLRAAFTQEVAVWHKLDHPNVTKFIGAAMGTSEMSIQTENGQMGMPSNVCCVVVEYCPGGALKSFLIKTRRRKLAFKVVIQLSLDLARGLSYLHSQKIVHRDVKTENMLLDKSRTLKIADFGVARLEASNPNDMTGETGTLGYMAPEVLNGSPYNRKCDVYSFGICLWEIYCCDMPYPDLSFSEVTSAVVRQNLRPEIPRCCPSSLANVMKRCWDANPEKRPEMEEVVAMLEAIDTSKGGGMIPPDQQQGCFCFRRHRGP

T2: FLAG-CBC2 (Arabidopsis thaliana) (UniProt Q9FGB1)
T2 sequence: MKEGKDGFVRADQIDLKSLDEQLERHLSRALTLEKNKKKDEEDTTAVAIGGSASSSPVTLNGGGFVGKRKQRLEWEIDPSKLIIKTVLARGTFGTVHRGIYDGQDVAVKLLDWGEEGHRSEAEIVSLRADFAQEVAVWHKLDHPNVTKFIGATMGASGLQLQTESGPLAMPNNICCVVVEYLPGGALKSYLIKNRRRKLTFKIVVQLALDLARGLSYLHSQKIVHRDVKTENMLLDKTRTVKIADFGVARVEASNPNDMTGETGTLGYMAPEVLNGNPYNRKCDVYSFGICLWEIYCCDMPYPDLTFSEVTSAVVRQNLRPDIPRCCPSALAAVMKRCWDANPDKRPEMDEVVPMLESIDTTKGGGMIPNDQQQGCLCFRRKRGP

T3: CBC1-nYFP (Arabidopsis thaliana) (UniProt Q9SSA4)
T3 sequence: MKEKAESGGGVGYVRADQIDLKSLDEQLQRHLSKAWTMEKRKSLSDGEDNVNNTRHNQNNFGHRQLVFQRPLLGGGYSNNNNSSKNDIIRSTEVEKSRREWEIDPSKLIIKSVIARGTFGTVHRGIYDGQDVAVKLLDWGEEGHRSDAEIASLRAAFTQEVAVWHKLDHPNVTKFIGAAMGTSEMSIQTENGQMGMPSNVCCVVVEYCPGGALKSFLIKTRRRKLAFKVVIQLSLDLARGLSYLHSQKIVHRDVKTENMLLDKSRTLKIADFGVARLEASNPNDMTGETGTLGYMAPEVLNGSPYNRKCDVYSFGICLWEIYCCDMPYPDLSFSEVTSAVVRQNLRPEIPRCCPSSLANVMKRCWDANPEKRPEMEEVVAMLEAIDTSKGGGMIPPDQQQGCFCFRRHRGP

T4: CBC2 (D245N)-nYFP, kinase-dead (Arabidopsis thaliana) (UniProt Q9FGB1)
T4 sequence: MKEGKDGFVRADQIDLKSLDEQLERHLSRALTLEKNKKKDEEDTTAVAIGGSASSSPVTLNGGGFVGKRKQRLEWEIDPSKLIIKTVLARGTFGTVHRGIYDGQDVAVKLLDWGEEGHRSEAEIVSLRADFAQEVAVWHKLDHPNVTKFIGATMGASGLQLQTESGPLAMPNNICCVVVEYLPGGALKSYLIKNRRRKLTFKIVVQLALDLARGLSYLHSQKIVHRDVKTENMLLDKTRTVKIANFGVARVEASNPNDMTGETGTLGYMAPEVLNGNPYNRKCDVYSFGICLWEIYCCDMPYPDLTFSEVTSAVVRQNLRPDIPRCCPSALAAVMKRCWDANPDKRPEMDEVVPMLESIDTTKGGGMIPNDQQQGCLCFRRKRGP


How the values were obtained:
[1] = biological target: T1, FLAG-CBC1 (Arabidopsis thaliana); assay: pull-down; His-tagged and FLAG-tagged proteins made by in vitro transcription/translation, mixed in 20 mM Tris-HCl pH 7.4, 140 mM NaCl, 0.1% Triton X-100, on ice 10 min; FLAG protein captured on anti-FLAG M2 Affinity Gel 1 h at 4 °C; bound His protein detected by immunoblot with a His tag antibody
[2] = biological target: T2, FLAG-CBC2 (Arabidopsis thaliana); assay: as above
[3] = biological target: FLAG-phot1 (phototropin 1) (Arabidopsis thaliana) (UniProt O48963); assay: as above
[4] = biological target: phot1-cYFP (Arabidopsis thaliana) (UniProt O48963); assay: split reporter; BiFC: nYFP- and cYFP-fused constructs co-transformed into Arabidopsis mesophyll protoplasts by PEG-calcium transfection; YFP fluorescence by confocal microscopy
[5] = biological target: T3, CBC1-nYFP (Arabidopsis thaliana); assay: as above
[6] = biological target: T4, CBC2 (D245N)-nYFP, kinase-dead (Arabidopsis thaliana); assay: as above

binding [1]	binding [2]	binding [3]	binding [4]	Binder	other results
binds	binds	binds		His-CBC1 (CO… OF BL AND CO2 1 kinase) (protein, UniProt Q9SSA4 1-411) MKEKAESGGGVGYVRADQIDLKSLDEQLQRHLSKAWTMEKRKSLSDGEDNVNNTRHNQNNFGHRQLVFQRPLLGGGYSNNNNSSKNDIIRSTEVEKSRREWEIDPSKLIIKSVIARGTFGTVHRGIYDGQDVAVKLLDWGEEGHRSDAEIASLRAAFTQEVAVWHKLDHPNVTKFIGAAMGTSEMSIQTENGQMGMPSNVCCVVVEYCPGGALKSFLIKTRRRKLAFKVVIQLSLDLARGLSYLHSQKIVHRDVKTENMLLDKSRTLKIADFGVARLEASNPNDMTGETGTLGYMAPEVLNGSPYNRKCDVYSFGICLWEIYCCDMPYPDLSFSEVTSAVVRQNLRPEIPRCCPSSLANVMKRCWDANPEKRPEMEEVVAMLEAIDTSKGGGMIPPDQQQGCFCFRRHRGP	
			binds	CBC1-nYFP (protein, UniProt Q9SSA4 1-411) MKEKAESGGGVGYVRADQIDLKSLDEQLQRHLSKAWTMEKRKSLSDGEDNVNNTRHNQNNFGHRQLVFQRPLLGGGYSNNNNSSKNDIIRSTEVEKSRREWEIDPSKLIIKSVIARGTFGTVHRGIYDGQDVAVKLLDWGEEGHRSDAEIASLRAAFTQEVAVWHKLDHPNVTKFIGAAMGTSEMSIQTENGQMGMPSNVCCVVVEYCPGGALKSFLIKTRRRKLAFKVVIQLSLDLARGLSYLHSQKIVHRDVKTENMLLDKSRTLKIADFGVARLEASNPNDMTGETGTLGYMAPEVLNGSPYNRKCDVYSFGICLWEIYCCDMPYPDLSFSEVTSAVVRQNLRPEIPRCCPSSLANVMKRCWDANPEKRPEMEEVVAMLEAIDTSKGGGMIPPDQQQGCFCFRRHRGP	
				HT1-cYFP (protein, UniProt Q2MHE4 1-390) MSGLCFNPFRLRWSLRSKLPLEPSLPNLPCNPSSSKTNRYAEAETMEKKRFDSMESWSMILESENVETWEASKGEREEWTADLSQLFIGNKFASGAHSRIYRGIYKQRAVAVKMVRIPTHKEETRAKLEQQFKSEVALLSRLFHPNIVQFIAACKKPPVYCIITEYMSQGNLRMYLNKKEPYSLSIETVLRLALDISRGMEYLHSQGVIHRDLKSNNLLLNDEMRVKVADFGTSCLETQCREAKGNMGTYRWMAPEMIKEKPYTRKVDVYSFGIVLWELTTALLPFQGMTPVQAAFAVAEKNERPPLPASCQPALAHLIKRCWSENPSKRPDFSNIVAVLEKYDECVKEGLPLTSHASLTKTKKAILDHLKGCVTSISSPFSSSSVPVNA	binding [5]: binds; binding [6]: binds
binds	binds			His-HT1 (HIGH LEAF TEMPERATURE 1 kinase) (protein, UniProt Q2MHE4 1-390) MSGLCFNPFRLRWSLRSKLPLEPSLPNLPCNPSSSKTNRYAEAETMEKKRFDSMESWSMILESENVETWEASKGEREEWTADLSQLFIGNKFASGAHSRIYRGIYKQRAVAVKMVRIPTHKEETRAKLEQQFKSEVALLSRLFHPNIVQFIAACKKPPVYCIITEYMSQGNLRMYLNKKEPYSLSIETVLRLALDISRGMEYLHSQGVIHRDLKSNNLLLNDEMRVKVADFGTSCLETQCREAKGNMGTYRWMAPEMIKEKPYTRKVDVYSFGIVLWELTTALLPFQGMTPVQAAFAVAEKNERPPLPASCQPALAHLIKRCWSENPSKRPDFSNIVAVLEKYDECVKEGLPLTSHASLTKTKKAILDHLKGCVTSISSPFSSSSVPVNA	
binds	binds	binds		His-CBC2 (CO… OF BL AND CO2 2 kinase) (protein, UniProt Q9FGB1 1-385) MKEGKDGFVRADQIDLKSLDEQLERHLSRALTLEKNKKKDEEDTTAVAIGGSASSSPVTLNGGGFVGKRKQRLEWEIDPSKLIIKTVLARGTFGTVHRGIYDGQDVAVKLLDWGEEGHRSEAEIVSLRADFAQEVAVWHKLDHPNVTKFIGATMGASGLQLQTESGPLAMPNNICCVVVEYLPGGALKSYLIKNRRRKLTFKIVVQLALDLARGLSYLHSQKIVHRDVKTENMLLDKTRTVKIADFGVARVEASNPNDMTGETGTLGYMAPEVLNGNPYNRKCDVYSFGICLWEIYCCDMPYPDLTFSEVTSAVVRQNLRPDIPRCCPSALAAVMKRCWDANPDKRPEMDEVVPMLESIDTTKGGGMIPNDQQQGCLCFRRKRGP	
			binds	CBC2 (D245N)-nYFP, kinase-dead (protein, UniProt Q9FGB1 1-385) MKEGKDGFVRADQIDLKSLDEQLERHLSRALTLEKNKKKDEEDTTAVAIGGSASSSPVTLNGGGFVGKRKQRLEWEIDPSKLIIKTVLARGTFGTVHRGIYDGQDVAVKLLDWGEEGHRSEAEIVSLRADFAQEVAVWHKLDHPNVTKFIGATMGASGLQLQTESGPLAMPNNICCVVVEYLPGGALKSYLIKNRRRKLTFKIVVQLALDLARGLSYLHSQKIVHRDVKTENMLLDKTRTVKIANFGVARVEASNPNDMTGETGTLGYMAPEVLNGNPYNRKCDVYSFGICLWEIYCCDMPYPDLTFSEVTSAVVRQNLRPDIPRCCPSALAAVMKRCWDANPDKRPEMDEVVPMLESIDTTKGGGMIPNDQQQGCLCFRRKRGP	
